Test results: patent US20110229560A1
Results are given in words; binding and its absence hold for the method and conditions named. In cells and extracts the contact can be indirect. Some results given as binding are weak or reduced against the parent protein; the word gives no strength. For some assays here: Where a sequence is shown, tags or fusion partners need not be part of it.

By UniProt entry, the sequences of proteins in these tests, tags left out. Where a name states a change or a piece, a line headed by the entry shows the natural chain unless it says otherwise.
UniProt Q86WI3: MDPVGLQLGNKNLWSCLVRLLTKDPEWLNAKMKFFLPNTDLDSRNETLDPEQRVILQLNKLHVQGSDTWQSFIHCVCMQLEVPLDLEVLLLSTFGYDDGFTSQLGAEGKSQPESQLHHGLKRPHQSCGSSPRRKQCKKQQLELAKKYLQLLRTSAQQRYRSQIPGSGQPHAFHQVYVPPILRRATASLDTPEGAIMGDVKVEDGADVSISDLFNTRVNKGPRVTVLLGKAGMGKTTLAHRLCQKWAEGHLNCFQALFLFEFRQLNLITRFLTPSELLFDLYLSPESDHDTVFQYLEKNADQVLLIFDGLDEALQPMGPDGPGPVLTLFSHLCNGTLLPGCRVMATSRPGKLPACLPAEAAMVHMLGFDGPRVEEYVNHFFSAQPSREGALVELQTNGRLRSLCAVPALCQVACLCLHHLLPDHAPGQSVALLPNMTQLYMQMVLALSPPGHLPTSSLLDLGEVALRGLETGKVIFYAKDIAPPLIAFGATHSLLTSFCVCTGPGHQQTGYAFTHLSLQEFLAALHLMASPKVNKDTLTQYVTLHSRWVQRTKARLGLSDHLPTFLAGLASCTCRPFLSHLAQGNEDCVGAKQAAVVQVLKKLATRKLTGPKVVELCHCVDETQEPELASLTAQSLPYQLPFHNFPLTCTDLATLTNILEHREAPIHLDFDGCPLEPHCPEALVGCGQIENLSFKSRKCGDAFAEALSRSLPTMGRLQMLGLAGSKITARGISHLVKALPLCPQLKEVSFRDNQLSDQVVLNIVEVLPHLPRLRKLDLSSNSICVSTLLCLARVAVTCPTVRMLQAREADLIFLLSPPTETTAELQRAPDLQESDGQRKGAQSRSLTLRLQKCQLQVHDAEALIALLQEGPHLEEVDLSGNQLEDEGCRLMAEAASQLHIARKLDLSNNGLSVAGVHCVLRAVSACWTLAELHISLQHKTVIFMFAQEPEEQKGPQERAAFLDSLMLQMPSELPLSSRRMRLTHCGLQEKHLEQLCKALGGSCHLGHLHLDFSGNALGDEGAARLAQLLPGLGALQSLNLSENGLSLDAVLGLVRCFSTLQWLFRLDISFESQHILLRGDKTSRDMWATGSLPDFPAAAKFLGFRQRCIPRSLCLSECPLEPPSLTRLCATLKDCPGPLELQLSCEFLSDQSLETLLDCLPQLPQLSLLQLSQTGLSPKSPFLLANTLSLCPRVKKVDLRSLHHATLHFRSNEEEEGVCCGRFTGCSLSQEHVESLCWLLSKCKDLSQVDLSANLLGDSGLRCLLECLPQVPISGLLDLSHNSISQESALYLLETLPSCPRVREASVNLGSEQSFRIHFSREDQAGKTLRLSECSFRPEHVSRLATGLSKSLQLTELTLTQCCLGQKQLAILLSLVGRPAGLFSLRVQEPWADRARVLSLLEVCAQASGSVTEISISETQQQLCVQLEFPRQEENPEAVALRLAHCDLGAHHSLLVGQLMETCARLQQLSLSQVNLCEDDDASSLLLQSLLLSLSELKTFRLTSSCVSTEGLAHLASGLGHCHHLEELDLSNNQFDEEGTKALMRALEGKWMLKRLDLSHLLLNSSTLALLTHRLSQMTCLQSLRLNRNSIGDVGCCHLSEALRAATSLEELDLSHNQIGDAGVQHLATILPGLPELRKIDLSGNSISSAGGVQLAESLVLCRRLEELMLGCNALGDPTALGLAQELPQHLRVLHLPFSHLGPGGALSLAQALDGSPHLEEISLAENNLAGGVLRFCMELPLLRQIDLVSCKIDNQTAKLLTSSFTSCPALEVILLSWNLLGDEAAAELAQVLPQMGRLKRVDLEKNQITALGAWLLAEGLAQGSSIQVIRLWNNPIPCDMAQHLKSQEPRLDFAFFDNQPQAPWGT

Experiments:
Flag-tagged IKKα [1] = biological target: T1, Flag-tagged IKKα (UniProt O15111); experiment: co-IP (anti-HA beads) and Western blot (anti-Flag), transfected 293T cells
T1 sequence (looked up): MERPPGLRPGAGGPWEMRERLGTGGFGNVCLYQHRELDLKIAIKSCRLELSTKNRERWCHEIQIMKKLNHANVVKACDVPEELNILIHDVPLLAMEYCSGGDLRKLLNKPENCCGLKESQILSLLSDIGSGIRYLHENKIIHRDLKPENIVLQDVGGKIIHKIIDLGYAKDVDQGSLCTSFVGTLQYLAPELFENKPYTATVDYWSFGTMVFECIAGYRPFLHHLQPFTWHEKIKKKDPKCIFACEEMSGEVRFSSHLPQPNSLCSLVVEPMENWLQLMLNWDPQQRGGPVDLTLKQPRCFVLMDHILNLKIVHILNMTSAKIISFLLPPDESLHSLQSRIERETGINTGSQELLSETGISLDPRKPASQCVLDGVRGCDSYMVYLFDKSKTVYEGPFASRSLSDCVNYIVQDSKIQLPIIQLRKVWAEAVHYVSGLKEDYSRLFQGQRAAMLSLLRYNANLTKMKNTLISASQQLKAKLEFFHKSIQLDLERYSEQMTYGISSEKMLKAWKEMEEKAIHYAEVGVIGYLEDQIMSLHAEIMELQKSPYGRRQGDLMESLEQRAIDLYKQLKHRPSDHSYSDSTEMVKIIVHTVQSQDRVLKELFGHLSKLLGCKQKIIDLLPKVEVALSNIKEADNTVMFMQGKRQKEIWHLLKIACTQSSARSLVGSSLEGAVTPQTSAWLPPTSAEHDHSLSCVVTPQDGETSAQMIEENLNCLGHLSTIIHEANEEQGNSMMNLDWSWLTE

Flag-tagged IKKα [2] = biological target: T1, Flag-tagged IKKα; experiment: co-IP (anti-HA beads) and Western blot (anti-Flag), transfected 293T cells, FIG. 7A
[3] = biological target: T2, Flag-tagged IKKβ (full length) (UniProt O14920); experiment: as above
T2 sequence (looked up): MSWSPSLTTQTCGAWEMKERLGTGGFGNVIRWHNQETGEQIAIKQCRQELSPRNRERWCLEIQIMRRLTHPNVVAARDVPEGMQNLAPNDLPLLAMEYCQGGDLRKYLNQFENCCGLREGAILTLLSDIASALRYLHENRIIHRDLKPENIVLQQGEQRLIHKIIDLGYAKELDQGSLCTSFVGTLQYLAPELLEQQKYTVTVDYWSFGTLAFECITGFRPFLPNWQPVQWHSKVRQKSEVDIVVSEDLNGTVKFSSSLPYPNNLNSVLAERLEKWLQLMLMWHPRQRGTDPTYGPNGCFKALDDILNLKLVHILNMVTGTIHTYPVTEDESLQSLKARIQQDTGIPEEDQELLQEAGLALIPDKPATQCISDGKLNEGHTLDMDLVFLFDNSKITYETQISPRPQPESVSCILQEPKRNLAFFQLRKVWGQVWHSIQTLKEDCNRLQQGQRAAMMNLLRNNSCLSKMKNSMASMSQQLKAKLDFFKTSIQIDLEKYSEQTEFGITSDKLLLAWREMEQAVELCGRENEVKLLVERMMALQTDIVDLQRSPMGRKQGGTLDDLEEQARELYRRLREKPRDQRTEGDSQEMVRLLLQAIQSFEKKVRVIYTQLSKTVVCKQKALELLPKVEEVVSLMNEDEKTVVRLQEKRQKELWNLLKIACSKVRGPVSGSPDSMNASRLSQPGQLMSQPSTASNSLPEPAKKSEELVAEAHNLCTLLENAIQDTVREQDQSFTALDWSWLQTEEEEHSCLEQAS

[4] = biological target: T3, MDA5 (expressed in 293T cells) (UniProt Q9BYX4); experiment: co-IP (anti-HA beads) and Western blot (anti-MDA5), transfected 293T cells
T3 sequence (looked up): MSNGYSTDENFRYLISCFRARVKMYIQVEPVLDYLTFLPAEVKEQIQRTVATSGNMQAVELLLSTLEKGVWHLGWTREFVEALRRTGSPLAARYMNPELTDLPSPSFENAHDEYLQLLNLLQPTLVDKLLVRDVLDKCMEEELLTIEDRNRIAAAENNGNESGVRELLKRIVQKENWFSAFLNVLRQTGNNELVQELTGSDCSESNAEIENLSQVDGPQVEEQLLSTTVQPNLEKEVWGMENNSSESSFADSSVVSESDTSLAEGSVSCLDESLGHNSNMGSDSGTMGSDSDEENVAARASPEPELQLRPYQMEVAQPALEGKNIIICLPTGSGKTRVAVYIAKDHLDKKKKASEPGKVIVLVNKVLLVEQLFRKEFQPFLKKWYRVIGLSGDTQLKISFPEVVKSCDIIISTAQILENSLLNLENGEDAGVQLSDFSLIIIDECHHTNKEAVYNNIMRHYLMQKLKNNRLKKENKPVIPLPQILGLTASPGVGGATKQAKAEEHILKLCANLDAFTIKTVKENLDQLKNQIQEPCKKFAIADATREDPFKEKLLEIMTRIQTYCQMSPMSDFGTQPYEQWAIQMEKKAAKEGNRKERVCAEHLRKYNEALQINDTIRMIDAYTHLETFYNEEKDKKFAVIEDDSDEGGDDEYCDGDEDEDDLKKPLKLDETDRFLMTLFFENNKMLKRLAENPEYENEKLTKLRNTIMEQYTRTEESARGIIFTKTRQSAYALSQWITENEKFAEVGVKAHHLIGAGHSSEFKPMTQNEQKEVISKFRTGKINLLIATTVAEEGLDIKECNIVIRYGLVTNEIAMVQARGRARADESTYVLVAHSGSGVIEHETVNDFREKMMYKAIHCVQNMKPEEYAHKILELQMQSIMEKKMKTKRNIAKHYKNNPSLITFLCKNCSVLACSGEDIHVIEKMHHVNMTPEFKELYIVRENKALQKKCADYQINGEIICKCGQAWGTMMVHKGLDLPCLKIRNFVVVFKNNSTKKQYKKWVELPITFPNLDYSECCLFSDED

[5] = biological target: T4, IKKβ-KD (amino-terminal kinase domain construct of IKKβ, Flag-tagged) (UniProt O14920); experiment: co-IP (anti-Flag beads) and Western blot (anti-HA), transfected 293T cells, FIG. 7E
T4 sequence (looked up): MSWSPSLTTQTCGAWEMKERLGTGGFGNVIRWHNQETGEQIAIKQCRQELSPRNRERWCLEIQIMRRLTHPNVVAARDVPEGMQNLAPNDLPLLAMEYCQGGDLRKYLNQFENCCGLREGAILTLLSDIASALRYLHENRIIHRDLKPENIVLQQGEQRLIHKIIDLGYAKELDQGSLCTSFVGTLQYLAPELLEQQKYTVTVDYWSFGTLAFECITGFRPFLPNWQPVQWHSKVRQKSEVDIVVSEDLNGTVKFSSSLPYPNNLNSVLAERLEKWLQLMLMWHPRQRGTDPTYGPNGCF

Measured: binding

HA-tagged NLRC5 (human NLRC5, full length) (from UniProt Q86WI3 1-1866)
binds: all assays above
